According to patent US6472515:
The exact form of at least one protein or probe is not confirmed. At least one result comes from cells or an extract, where the contact may be indirect.

The chains behind the UniProt entries cited, without tags or fusion partners. Residues count along the entry.
UniProt P98177, 86-211: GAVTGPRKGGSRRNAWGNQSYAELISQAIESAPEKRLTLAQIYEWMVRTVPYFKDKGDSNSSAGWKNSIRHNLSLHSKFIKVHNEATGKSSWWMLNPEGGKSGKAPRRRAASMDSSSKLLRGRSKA

Biological target: GST-AfxDBD (Afx/FOXO4 fork head DNA binding domain) (Homo sapiens) (UniProt P98177)
Assay: SELEX
Settings: protein in a lysate after overexpression, protein details: N-terminal GST (pGEX-2T-KB), E. coli extract

GGGCCCAGGCATAAACATGTTGTTG (double strand) [Afx selected 20]
selection result (six rounds, as above): selected

GGGAGCCCCATAACATGTTTTCACG (double strand) [Afx selected 19]
selection result (six rounds, as above): selected

GGCCCACGGTCAACATGTTTTGATG (double strand) [Afx selected 12]
selection result (six rounds, as above): selected

GGCATAGCTCTGTGTAAACATGTTG (double strand) [Afx selected 8]
selection result (six rounds, as above): selected

GGCCGCGGATAACAACATGTTGTTG (double strand) [Afx selected 2]
selection result (six rounds, as above): selected

GGACGGTAGGGGAGTAAACATGTTG (double strand) [Afx selected 5]
selection result (six rounds, as above): selected

GGTAGGCAGCACAACATGTTTACCC (double strand) [Afx selected 17]
selection result (six rounds, as above): selected

GGTACATACGGTAAACATGTTGTGC (double strand) [Afx selected 18]
selection result (six rounds, as above): selected

GCCCCACTCCATAACATGTTGTTC (double strand) [Afx selected 1]
selection result: selected

GGCATCAACATGTTTATAATGGGTG (double strand) [Afx selected 10]
selection result (six rounds, as above): selected

GGCACCCGCAGTAAACATGTTATGC (double strand) [Afx selected 7]
selection result (six rounds, as above): selected

GGCCGACTATCAACATGTTTGCCTG (double strand) [Afx selected 3]
selection result (six rounds, as above): selected

GGCGGGAGGTGTCAACATGTTGTGC (double strand) [Afx selected 6]
selection result (six rounds, as above): selected

GGCAGGACGGTACACAAACATGTTG (double strand) [Afx selected 9]
selection result (six rounds, as above): selected

GGGCGGGATAAACATGTTATGCTCC (double strand) [Afx selected 16]
selection result (six rounds, as above): selected

GGCAGCGGTAAACATGTTGTCTCCC (double strand) [Afx selected 11]
selection result (six rounds, as above): selected

GGGTAAACATGTTGT (double strand) [Afx consensus]
selection result (consensus of 20 selected sequences): selected

GGCGGGGACTCGGGTAAACATGTTG (double strand) [Afx selected 13]
selection result (six rounds, as above): selected

GGAGCATAAACATGTTGTTGGCGGC (double strand) [Afx selected 14]
selection result (six rounds, as above): selected
